The other results are listed elsewhere or left out.
Compound: COc1ccc(Cn2ccc3ccc(C(=O)NO)cc32)cc1
Assay: dose-dependent thermal stabilisation call (2D-TPP, DLPTP, 10% FDR) (binary (1 = stabilised)); higher = stabilised by the compound
Conditions: system: HL-60 intact cells; concentration range 0.04-10 µM

Protein sequences, listed by entry. Tags and fused reporters are not part of them. Lines headed by an entry give the natural chain unless they say otherwise; changes in a name come on top.
UniProt O00422: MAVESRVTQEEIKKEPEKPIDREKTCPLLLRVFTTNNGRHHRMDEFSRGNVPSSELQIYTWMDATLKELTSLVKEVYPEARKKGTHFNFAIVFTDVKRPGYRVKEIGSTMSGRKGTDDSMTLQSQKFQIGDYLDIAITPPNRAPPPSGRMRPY
UniProt Q9Y3Z3: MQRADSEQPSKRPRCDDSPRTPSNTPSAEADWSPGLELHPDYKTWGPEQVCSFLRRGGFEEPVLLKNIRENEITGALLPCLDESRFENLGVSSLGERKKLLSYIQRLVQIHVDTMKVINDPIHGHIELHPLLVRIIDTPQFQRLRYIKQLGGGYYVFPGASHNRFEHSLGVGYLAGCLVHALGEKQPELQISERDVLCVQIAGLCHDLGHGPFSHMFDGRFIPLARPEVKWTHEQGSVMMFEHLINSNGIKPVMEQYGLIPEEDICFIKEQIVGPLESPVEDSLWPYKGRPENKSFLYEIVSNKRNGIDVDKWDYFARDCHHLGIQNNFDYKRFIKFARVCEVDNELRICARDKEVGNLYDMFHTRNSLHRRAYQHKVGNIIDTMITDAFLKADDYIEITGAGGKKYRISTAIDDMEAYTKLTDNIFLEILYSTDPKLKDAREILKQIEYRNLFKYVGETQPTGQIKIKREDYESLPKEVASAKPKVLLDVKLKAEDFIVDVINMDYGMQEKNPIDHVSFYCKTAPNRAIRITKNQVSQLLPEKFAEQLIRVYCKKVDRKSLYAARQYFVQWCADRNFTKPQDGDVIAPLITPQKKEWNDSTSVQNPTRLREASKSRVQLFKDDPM
UniProt P78345: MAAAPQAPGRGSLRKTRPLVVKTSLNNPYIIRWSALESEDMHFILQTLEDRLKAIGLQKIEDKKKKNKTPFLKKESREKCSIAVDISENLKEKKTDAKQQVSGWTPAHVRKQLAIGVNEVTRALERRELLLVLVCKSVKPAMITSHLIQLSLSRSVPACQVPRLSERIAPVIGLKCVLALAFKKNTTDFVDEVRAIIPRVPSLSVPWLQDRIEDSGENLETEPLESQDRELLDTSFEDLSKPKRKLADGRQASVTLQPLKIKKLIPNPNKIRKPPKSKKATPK
UniProt Q9H0E3: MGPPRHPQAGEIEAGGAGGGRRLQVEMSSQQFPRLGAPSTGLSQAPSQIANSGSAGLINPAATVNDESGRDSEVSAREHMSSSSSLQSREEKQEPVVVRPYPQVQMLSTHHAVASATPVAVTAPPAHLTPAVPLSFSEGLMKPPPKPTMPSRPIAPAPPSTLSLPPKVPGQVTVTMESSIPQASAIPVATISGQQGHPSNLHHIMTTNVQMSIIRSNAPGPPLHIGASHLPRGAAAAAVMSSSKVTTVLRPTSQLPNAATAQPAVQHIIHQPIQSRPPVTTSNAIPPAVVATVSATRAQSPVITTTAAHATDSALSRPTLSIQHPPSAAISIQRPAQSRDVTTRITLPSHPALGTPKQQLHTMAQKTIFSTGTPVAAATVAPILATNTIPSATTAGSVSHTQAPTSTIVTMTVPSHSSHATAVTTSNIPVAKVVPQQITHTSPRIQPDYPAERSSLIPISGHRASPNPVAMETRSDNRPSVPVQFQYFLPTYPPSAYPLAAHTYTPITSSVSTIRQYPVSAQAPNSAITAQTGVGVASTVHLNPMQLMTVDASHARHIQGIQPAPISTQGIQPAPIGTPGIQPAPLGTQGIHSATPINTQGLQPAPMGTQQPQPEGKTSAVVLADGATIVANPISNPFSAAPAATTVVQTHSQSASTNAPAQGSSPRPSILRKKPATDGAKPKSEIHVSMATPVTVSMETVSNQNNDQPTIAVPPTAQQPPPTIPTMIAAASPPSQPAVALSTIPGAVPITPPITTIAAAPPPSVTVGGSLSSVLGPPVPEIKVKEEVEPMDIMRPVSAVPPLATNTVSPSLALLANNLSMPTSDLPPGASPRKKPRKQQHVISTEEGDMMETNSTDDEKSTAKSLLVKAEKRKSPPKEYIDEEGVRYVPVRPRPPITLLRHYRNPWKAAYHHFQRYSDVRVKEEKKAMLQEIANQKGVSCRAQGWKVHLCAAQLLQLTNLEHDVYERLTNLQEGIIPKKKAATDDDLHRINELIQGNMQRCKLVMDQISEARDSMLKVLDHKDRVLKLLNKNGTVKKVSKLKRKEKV
UniProt Q9HC36: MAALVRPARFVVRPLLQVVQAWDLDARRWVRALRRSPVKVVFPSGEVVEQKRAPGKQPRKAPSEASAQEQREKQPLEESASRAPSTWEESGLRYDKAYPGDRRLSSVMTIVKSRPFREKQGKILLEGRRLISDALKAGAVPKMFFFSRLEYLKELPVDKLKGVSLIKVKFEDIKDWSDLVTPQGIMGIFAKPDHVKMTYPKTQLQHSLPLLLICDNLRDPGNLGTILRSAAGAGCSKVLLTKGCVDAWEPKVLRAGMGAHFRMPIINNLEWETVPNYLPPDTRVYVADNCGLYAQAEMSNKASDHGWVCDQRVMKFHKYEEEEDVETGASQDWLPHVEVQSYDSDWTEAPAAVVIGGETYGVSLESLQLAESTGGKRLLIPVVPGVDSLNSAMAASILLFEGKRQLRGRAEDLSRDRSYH
UniProt O43148, whole entry: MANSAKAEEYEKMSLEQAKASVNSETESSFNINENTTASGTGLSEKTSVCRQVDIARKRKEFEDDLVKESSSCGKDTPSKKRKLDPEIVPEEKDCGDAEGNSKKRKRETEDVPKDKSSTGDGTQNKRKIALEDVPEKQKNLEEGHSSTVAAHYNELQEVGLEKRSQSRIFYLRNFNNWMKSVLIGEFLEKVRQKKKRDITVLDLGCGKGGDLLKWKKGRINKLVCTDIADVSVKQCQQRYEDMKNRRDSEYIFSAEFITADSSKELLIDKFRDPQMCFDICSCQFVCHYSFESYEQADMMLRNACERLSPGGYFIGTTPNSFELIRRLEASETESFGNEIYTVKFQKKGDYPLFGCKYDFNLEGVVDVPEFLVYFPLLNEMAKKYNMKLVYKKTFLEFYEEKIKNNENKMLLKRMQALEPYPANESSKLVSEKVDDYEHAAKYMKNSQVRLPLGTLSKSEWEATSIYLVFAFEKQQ
UniProt Q8ND24: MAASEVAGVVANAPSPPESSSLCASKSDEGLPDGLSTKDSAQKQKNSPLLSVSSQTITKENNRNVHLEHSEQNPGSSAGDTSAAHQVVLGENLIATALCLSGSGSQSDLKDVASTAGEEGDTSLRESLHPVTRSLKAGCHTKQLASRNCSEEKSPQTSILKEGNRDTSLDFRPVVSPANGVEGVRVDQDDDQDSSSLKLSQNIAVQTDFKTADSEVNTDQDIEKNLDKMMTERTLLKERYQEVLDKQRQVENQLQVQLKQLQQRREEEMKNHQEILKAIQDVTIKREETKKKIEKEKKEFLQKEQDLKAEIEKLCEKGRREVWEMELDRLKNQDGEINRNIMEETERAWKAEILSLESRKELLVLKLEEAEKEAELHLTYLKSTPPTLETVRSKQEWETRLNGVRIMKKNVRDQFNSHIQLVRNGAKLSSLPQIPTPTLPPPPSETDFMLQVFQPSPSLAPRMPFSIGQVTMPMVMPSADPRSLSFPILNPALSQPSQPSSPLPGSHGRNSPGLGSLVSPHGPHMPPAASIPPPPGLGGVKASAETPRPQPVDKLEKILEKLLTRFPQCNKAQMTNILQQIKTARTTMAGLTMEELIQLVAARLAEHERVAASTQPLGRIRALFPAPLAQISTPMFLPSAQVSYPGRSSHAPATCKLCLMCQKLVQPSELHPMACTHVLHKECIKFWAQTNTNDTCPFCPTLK
UniProt Q9UBF6, whole entry: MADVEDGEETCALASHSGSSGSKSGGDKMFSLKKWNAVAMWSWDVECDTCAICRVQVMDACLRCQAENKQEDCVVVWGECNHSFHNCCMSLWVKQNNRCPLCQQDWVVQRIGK
UniProt O75792: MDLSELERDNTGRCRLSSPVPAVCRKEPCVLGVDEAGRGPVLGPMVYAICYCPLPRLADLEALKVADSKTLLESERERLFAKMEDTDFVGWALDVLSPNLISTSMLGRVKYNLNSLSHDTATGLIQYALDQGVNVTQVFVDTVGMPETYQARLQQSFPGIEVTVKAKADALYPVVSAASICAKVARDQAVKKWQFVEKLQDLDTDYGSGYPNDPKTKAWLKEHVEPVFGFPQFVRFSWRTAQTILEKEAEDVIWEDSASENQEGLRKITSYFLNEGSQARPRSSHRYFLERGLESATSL
UniProt P18615, whole entry: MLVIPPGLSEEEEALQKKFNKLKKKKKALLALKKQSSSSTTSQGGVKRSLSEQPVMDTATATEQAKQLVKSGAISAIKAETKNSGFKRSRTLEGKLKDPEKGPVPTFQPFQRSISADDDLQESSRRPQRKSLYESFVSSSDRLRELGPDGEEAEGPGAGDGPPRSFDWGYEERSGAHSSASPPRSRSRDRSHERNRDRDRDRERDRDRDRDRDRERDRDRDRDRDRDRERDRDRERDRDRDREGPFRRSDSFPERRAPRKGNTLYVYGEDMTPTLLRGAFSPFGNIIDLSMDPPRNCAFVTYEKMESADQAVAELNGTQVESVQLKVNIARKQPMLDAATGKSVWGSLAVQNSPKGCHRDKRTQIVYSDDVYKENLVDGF
UniProt Q8N5U6: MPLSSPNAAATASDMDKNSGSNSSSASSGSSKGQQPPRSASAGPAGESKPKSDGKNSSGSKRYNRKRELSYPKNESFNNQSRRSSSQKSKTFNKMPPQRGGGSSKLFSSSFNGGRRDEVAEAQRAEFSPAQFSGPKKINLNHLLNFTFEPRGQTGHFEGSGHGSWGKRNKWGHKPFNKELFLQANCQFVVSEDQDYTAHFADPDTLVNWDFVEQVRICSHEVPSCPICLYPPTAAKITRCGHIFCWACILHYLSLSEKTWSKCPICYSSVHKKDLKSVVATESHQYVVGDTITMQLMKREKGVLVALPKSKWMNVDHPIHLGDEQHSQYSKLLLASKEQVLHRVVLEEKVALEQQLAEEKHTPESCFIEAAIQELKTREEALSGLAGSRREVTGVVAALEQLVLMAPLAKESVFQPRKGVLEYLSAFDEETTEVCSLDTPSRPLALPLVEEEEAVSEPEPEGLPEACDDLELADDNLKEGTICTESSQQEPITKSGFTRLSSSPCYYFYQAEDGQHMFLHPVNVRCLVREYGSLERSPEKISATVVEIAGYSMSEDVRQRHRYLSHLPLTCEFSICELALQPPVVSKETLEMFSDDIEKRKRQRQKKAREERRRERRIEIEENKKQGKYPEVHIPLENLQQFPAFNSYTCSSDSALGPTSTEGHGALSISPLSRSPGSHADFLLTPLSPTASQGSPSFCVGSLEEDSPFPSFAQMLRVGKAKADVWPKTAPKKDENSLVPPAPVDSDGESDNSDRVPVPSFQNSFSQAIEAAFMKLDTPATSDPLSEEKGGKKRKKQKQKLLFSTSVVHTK
UniProt P56182: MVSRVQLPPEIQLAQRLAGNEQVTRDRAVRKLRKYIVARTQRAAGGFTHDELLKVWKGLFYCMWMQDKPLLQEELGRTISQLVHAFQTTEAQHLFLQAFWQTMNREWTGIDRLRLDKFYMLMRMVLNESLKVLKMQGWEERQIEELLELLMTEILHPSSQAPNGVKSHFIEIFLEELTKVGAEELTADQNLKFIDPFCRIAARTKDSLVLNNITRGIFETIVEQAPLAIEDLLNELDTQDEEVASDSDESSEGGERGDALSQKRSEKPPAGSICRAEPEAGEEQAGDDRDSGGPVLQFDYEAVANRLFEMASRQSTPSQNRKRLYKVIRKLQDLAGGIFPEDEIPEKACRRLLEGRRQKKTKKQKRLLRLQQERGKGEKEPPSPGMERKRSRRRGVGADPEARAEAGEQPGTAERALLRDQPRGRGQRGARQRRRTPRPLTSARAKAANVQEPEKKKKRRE
UniProt P57060: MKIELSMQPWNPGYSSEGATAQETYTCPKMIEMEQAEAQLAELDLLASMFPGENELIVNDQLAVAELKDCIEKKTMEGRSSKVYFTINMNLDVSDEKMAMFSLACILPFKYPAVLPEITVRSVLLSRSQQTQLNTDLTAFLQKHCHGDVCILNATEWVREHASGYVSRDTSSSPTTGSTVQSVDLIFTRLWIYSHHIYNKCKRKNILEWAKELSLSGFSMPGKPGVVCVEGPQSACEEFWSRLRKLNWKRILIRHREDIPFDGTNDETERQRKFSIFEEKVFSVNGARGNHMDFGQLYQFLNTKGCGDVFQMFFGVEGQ
UniProt P13489: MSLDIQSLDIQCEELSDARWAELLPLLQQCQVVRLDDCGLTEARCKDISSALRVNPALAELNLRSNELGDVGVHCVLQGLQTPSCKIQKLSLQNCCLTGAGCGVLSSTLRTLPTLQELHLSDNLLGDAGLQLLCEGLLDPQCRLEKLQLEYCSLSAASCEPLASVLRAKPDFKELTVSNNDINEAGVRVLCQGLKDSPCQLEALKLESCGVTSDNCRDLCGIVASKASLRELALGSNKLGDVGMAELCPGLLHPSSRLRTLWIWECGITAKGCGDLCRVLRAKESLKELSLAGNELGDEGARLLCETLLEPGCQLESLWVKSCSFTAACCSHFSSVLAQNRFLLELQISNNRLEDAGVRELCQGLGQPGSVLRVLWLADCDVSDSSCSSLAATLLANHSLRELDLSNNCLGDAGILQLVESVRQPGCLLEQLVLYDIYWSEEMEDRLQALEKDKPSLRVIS

Row | Target | dose-dependent thermal stabilisation call
1 | RG9MTD1 (UniProt Q7L0Y3) | inactive: 0
2 | SAP18 (UniProt O00422) | inactive: 0
3 | RPL34 (UniProt P49207) | inactive: 0
4 | RPL27 (UniProt P61353) | inactive: 0
5 | RWDD3 (UniProt Q9Y3V2) | inactive: 0
6 | SAMHD1 (UniProt Q9Y3Z3) | inactive: 0
7 | RPP38 (UniProt P78345) | inactive: 0
8 | RFC3 (UniProt P40938) | inactive: 0
9 | SAP130 (UniProt Q9H0E3) | inactive: 0
10 | RNMTL1 (UniProt Q9HC36) | inactive: 0
11 | RPL9 (UniProt P32969) | inactive: 0
12 | RNMT (UniProt O43148) | inactive: 0
13 | RNF214 (UniProt Q8ND24) | inactive: 0
14 | RPS23 (UniProt P62266) | inactive: 0
15 | RNF7 (UniProt Q9UBF6) | inactive: 0
16 | RPN2 (UniProt P04844) | inactive: 0
17 | RICTOR (UniProt Q6R327) | inactive: 0
18 | RNASEH2A (UniProt O75792) | inactive: 0
19 | RPUSD2 (UniProt Q8IZ73) | inactive: 0

Row | Target | dose-dependent thermal stabilisation call
20 | RMI1 (UniProt Q9H9A7) | inactive: 0
21 | RDBP (UniProt P18615) | inactive: 0
22 | RNF10 (UniProt Q8N5U6) | inactive: 0
23 | RPL35A (UniProt P18077) | inactive: 0
24 | RPS20 (UniProt P60866) | active: 1
25 | RNASE3 (UniProt P12724) | inactive: 0
26 | RPL29 (UniProt P47914) | inactive: 0
27 | RRP1 (UniProt P56182) | inactive: 0
28 | RNGTT (UniProt O60942) | inactive: 0
29 | RINT1 (UniProt Q6NUQ1) | inactive: 0
30 | RPS6KC1 (UniProt Q96S38) | inactive: 0
31 | RWDD2B (UniProt P57060) | inactive: 0
32 | RSRC2 (UniProt Q7L4I2) | inactive: 0
33 | RPAIN (UniProt Q86UA6) | inactive: 0
34 | RER1 (UniProt O15258) | inactive: 0
35 | RFX2 (UniProt P48378) | inactive: 0
36 | RTF1 (UniProt Q92541) | inactive: 0
37 | RNH1 (UniProt P13489) | inactive: 0
38 | RPS11 (UniProt P62280) | inactive: 0

Reformatted with tabs: part of the list above
Row	Target	dose-dependent thermal stabilisation call
37	RNH1 (UniProt P13489)	inactive: 0
38	RPS11 (UniProt P62280)	inactive: 0

— the supplement of paper PMC7666118
